# Data as given in PubChem BioAssay AID1259254 (NCATS, 2017).
# Assay: 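Finding genes that stop cells copying their DNA twice in one cycle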 (primary screen)
# System: human HCT116 colorectal cancer cells
# Knock-down reagent: single siRNA against human genes
# Timing: 3 days
# Measurement: 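Nuclei stained with Hoechst and imaged; cell-cycle phase assigned by DNA content; G2 share scaled per plate, non-targeting siRNA 0%, GMNN siRNA 100%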
# Scale: G2 robust z-score and G2 cells, % of GMNN control: higher = more G2 cells, more excess DNA replication
# Hit rule: 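Active siRNAs have a G2 robust z of 5 or more median absolute deviations over the median, which in these data means about 38% or higher of GMNN control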
# Shown is a random part of about 59,000 reagents tested. In the full data, about 1,550 (2.6%) were called active. 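G2 share is only a proxy for re-replication; each gene was hit by three separate siRNAs, and active genes were retested.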 The numbers tell different reagents against one gene apart. Not all columns of the deposit are shown. Not given: the amount of reagent.
target gene,reagent,G2 robust z-score,"G2 cells, % of GMNN control",call
GPATCH2L (GeneID 55668),1,1.34,12.4,inactive
GPATCH2L (GeneID 55668),2,0.35,5.43,inactive
GPATCH2L (GeneID 55668),3,-0.489,-0.47,inactive
LDLRAD2 (GeneID 401944),1,0.0237,3.13,inactive
LDLRAD2 (GeneID 401944),2,4.59,35.3,inactive
LDLRAD2 (GeneID 401944),3,3.42,27,inactive
BAIAP3 (GeneID 8938),1,0.345,5.4,inactive
BAIAP3 (GeneID 8938),2,2.89,23.3,inactive
BAIAP3 (GeneID 8938),3,1.99,16.9,inactive
MYL9 (GeneID 10398),1,-0.158,1.86,inactive
MYL9 (GeneID 10398),2,-0.142,1.97,inactive
MYL9 (GeneID 10398),3,-0.778,-2.51,inactive
ARHGAP25 (GeneID 9938),1,-0.0685,2.49,inactive
ARHGAP25 (GeneID 9938),2,-0.823,-2.82,inactive
ARHGAP25 (GeneID 9938),3,-0.0543,2.59,inactive
EXPH5 (GeneID 23086),1,3.28,26,inactive
EXPH5 (GeneID 23086),2,0.452,6.15,inactive
EXPH5 (GeneID 23086),3,-0.636,-1.5,inactive
KATNB1 (GeneID 10300),1,-0.516,-0.662,inactive
KATNB1 (GeneID 10300),2,2.35,19.5,inactive
KATNB1 (GeneID 10300),3,1.17,11.2,inactive
RIOX2 (GeneID 84864),1,-0.971,-3.86,inactive
RIOX2 (GeneID 84864),2,2.37,19.6,inactive
RIOX2 (GeneID 84864),3,-0.202,1.54,inactive
SPIC (GeneID 121599),1,-0.604,-1.28,inactive
SPIC (GeneID 121599),2,1.54,13.8,inactive
SPIC (GeneID 121599),3,-0.408,0.0965,inactive

Individual results from the entries so far.
GPATCH2L (GeneID 55668) #2, call = inactive
GPATCH2L (GeneID 55668) #1, G2 cells, % of GMNN control: 12.4
For “call”, KATNB1 (GeneID 10300) #1 has inactive
Result of KATNB1 (GeneID 10300) #3 under “call”: inactive
Entry for LDLRAD2 (GeneID 401944) #3 under “G2 robust z-score”: 3.42
Under “call”, BAIAP3 (GeneID 8938) #1 reads inactive

The results go on:
target gene,reagent,G2 robust z-score,"G2 cells, % of GMNN control",call
SH3BGRL2 (GeneID 83699),1,-0.943,-3.67,inactive
SH3BGRL2 (GeneID 83699),2,1.18,11.3,inactive
SH3BGRL2 (GeneID 83699),3,-0.179,1.71,inactive
INTS12 (GeneID 57117),1,-1.37,-6.65,inactive
INTS12 (GeneID 57117),2,2.18,18.3,inactive
INTS12 (GeneID 57117),3,1.02,10.2,inactive
DDX6 (GeneID 1656),1,-0.129,2.06,inactive
DDX6 (GeneID 1656),2,2.32,19.3,inactive
DDX6 (GeneID 1656),3,2.04,17.3,inactive
CARMIL1 (GeneID 55604),1,3.5,27.6,inactive
CARMIL1 (GeneID 55604),2,-0.508,-0.604,inactive
CARMIL1 (GeneID 55604),3,-0.38,0.291,inactive
ATP5MK (GeneID 84833),1,0.39,5.71,inactive
ATP5MK (GeneID 84833),2,-0.95,-3.72,inactive
ATP5MK (GeneID 84833),3,-0.647,-1.58,inactive
CLDN20 (GeneID 49861),1,0.875,9.12,inactive
CLDN20 (GeneID 49861),2,-0.00232,2.95,inactive
CLDN20 (GeneID 49861),3,-1.1,-4.8,inactive
ZC2HC1C (GeneID 79696),1,0.743,8.19,inactive
ZC2HC1C (GeneID 79696),2,0.807,8.65,inactive
ZC2HC1C (GeneID 79696),3,-0.187,1.65,inactive
ROMO1 (GeneID 140823),1,2.82,22.8,inactive
ROMO1 (GeneID 140823),2,-0.9,-3.37,inactive
ROMO1 (GeneID 140823),3,0.505,6.52,inactive
RCL1 (GeneID 10171),1,-0.188,1.64,inactive
RCL1 (GeneID 10171),2,0.132,3.9,inactive
RCL1 (GeneID 10171),3,1.44,13.1,inactive
ZNF280C (GeneID 55609),1,-0.411,0.0744,inactive
ZNF280C (GeneID 55609),2,-0.783,-2.54,inactive
ZNF280C (GeneID 55609),3,0.802,8.61,inactive
SP8 (GeneID 221833),1,0.911,9.37,inactive
SP8 (GeneID 221833),2,3.15,25.2,inactive
SP8 (GeneID 221833),3,0.602,7.21,inactive
KLRD1 (GeneID 3824),1,-1.04,-4.38,inactive
KLRD1 (GeneID 3824),2,-0.377,0.316,inactive
KLRD1 (GeneID 3824),3,-0.376,0.325,inactive
CXCL2 (GeneID 2920),1,0.0873,3.58,inactive
CXCL2 (GeneID 2920),2,-0.833,-2.89,inactive
CXCL2 (GeneID 2920),3,-0.364,0.404,inactive
ATCAY (GeneID 85300),1,0.953,9.67,inactive
ATCAY (GeneID 85300),2,0.399,5.77,inactive
ATCAY (GeneID 85300),3,0.0395,3.25,inactive
